Source: PubChem BioAssay AID1259308 (NCATS, 2017)
Purpose: 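Knock-downs that increase output of a recombinant reporter protein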 (primary screen). Cell system: human HEK293 embryonic kidney cells stably expressing firefly luciferase (HEK-CMV-Luc2-Hygro). Reagent: single siRNA against human genes, 0.8 pmol siRNA per well. Timing: 72 h. Measurement: 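Reporter luminescence and viable-cell signal on separate replicate plates, given as percent of non-targeting control and median/MAD z-scores, plus per-cell luciferase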. Reading the numbers: total luciferase, z-score: higher = more reporter protein produced. Hit rule: 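An siRNA counts as active if its total luciferase robust z-score exceeds 3; genes with two or more such siRNAs out of three were retested with fresh siRNAs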. Meaning of the calls: active = raised luciferase; inactive = no rise.
Shown is an unselected part of about 59,000 deposited reagents. About 1,510 of them (2.6%) were called active. 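Calls use total luciferase alone and ignore viability, so some active siRNAs may act by altering cell number.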 Reagents against one gene are numbered here. Not all columns of the deposit are shown. No sequences are given here.

After knock-down of ELAPOR2 #1 the results were total luciferase, z-score 1.65; inactive.
Against ELAPOR2 #2 the deposit lists total luciferase, z-score -2.9; inactive.
ELAPOR2 #3 scored total luciferase, z-score -0.336; inactive.
Against SYNDIG1L (synapse differentiation inducing 1 like) #1, the values are total luciferase, z-score -0.101; inactive.
Depletion of SYNDIG1L (synapse differentiation inducing 1 like) #2 gave: total luciferase, z-score 2.05; inactive.
With knock-down of SYNDIG1L (synapse differentiation inducing 1 like) #3 the results were total luciferase, z-score -0.738; inactive.
Depletion of SYNDIG1L (synapse differentiation inducing 1 like) #4 gave: total luciferase, z-score 2.53; inactive.
Against SYNDIG1L (synapse differentiation inducing 1 like) #5, the values are total luciferase, z-score -1.35; inactive.
After knock-down of SYNDIG1L (synapse differentiation inducing 1 like) #6, the screen gave total luciferase, z-score 3.74; active.
For TPST1 (tyrosylprotein sulfotransferase 1) #1, the entry reads total luciferase, z-score -0.327; inactive.
Silencing of TPST1 (tyrosylprotein sulfotransferase 1) #2 gave: total luciferase, z-score -0.317; inactive.
TPST1 (tyrosylprotein sulfotransferase 1) #3 gave total luciferase, z-score -1.12; inactive.
For EGFEM1P (EGF like and EMI domain containing 1, pseudogene) #1 the deposit lists total luciferase, z-score -1.07; inactive.
EGFEM1P (EGF like and EMI domain containing 1, pseudogene) #2 scored total luciferase, z-score -0.0903; inactive.
For EGFEM1P (EGF like and EMI domain containing 1, pseudogene) #3, the values are total luciferase, z-score 1.42; inactive.
EGFEM1P (EGF like and EMI domain containing 1, pseudogene) #4 gave total luciferase, z-score -1.98; inactive.
Knock-down of EGFEM1P (EGF like and EMI domain containing 1, pseudogene) #5 came out at: total luciferase, z-score -2.37; inactive.
Against EGFEM1P (EGF like and EMI domain containing 1, pseudogene) #6, the values are total luciferase, z-score 0.494; inactive.
LDHAL6B (lactate dehydrogenase A like 6B) #1 gave total luciferase, z-score -0.41; inactive.
LDHAL6B (lactate dehydrogenase A like 6B) #2 gave total luciferase, z-score -0.791; inactive.
LDHAL6B (lactate dehydrogenase A like 6B) #3 gave total luciferase, z-score -1.85; inactive.
Silencing of ASB5 (ankyrin repeat and SOCS box containing 5) #1 came out at: total luciferase, z-score 0.00689; inactive.
Depletion of ASB5 (ankyrin repeat and SOCS box containing 5) #2 came out at: total luciferase, z-score 0.584; inactive.
ASB5 (ankyrin repeat and SOCS box containing 5) #3 showed total luciferase, z-score -0.708; inactive.
After knock-down of SNX30 (sorting nexin family member 30) #1 the results were total luciferase, z-score -2.04; inactive.
Depletion of SNX30 (sorting nexin family member 30) #2 resulted in: total luciferase, z-score -0.884; inactive.
SNX30 (sorting nexin family member 30) #3 showed total luciferase, z-score -0.281; inactive.
Depletion of ITGA2B (integrin subunit alpha 2b) #1 came out at: total luciferase, z-score 0.0421; inactive.
After knock-down of ITGA2B (integrin subunit alpha 2b) #2 the results were total luciferase, z-score -0.0614; inactive.
ITGA2B (integrin subunit alpha 2b) #3 gave total luciferase, z-score -0.682; inactive.
ANKS6 (ankyrin repeat and sterile alpha motif domain containing 6) #1 showed total luciferase, z-score -0.265; inactive.
Against ANKS6 (ankyrin repeat and sterile alpha motif domain containing 6) #2 the deposit lists total luciferase, z-score -2.03; inactive.
Knock-down of ANKS6 (ankyrin repeat and sterile alpha motif domain containing 6) #3 resulted in: total luciferase, z-score 0.249; inactive.

Part of the list above, reformatted.
TPST1 (tyrosylprotein sulfotransferase 1) #2
- total luciferase, z-score: -0.317
- activity call: inactive

TPST1 (tyrosylprotein sulfotransferase 1) #3
- total luciferase, z-score: -1.12
- activity call: inactive

EGFEM1P (EGF like and EMI domain containing 1, pseudogene) #1
- total luciferase, z-score: -1.07
- activity call: inactive

EGFEM1P (EGF like and EMI domain containing 1, pseudogene) #2
- total luciferase, z-score: -0.0903
- activity call: inactive
